Reference: PubChem BioAssay AID540275 (National Center for Advancing Translational Sciences (NCATS), 2011)
Out of some 320,000 compounds screened, about 620 (0.19%) were called active. Inconclusive means that the source gave no clear call. Such entries were picked first, then a sample of the others. Rule as the data show it: active = activation above about 80%; inconclusive = between about 30% and that limit; inactive = weaker than that.

By UniProt entry, the sequences of proteins in these tests, tags left out.
UniProt Q8NER1, whole entry, looked up: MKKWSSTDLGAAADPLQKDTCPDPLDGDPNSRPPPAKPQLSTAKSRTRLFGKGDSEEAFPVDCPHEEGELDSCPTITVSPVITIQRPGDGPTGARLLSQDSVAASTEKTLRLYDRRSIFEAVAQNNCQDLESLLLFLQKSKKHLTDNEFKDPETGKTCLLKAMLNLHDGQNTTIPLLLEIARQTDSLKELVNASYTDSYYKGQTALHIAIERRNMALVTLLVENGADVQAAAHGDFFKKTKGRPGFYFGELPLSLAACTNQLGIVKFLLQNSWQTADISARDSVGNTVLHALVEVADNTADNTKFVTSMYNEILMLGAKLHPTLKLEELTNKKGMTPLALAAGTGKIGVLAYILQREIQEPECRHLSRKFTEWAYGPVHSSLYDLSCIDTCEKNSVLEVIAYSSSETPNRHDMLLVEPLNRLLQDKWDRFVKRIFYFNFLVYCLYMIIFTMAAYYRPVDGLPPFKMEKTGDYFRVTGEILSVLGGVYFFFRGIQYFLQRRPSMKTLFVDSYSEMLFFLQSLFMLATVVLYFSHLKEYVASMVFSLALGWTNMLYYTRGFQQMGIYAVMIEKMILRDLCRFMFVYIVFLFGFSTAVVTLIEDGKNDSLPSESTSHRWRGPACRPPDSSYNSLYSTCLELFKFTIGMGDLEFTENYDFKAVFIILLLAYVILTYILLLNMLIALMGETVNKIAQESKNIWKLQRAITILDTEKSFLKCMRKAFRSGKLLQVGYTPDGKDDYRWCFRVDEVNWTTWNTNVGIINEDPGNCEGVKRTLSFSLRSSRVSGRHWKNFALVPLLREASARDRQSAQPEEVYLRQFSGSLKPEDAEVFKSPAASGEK

Target: Transient receptor potential cation channel subfamily V member 1 (Homo sapiens) (UniProt Q8NER1)
Test: HTS Assay for Compounds that Act as Agonists of the Vanilloid Receptor 1; also: 0% is about no effect
Settings: TRPV1-expressing cells, Fluo-8 calcium influx, agonist mode; at 8.33 µM, stronger effect = higher value
Outline: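 Cells expressing TRPV1 were dye-loaded with Fluo-8 and read kinetically: 10 s baseline, 3 min after compound (agonist portion), then 2 min after EC20 capsaicin (allosteric enhancer portion). Calcium-bound dye fluorescence at 480/520 nm.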

| SMILES | activation |
| --- | --- |
| CC(C)c1ccc(OCC(=O)N2CCc3ccccc3C2)cc1 | inconclusive: 60.8% |
| CC1=Nc2ccccc2/C1=C\c1nc(-c2ccc(C(F)(F)F)cc2)oc1O | inactive: 5.97% |
| COc1ccc2cc3cc(C(=O)NC4CC4)sc3nc2c1 | inconclusive: 72.9% |
| CCc1ccc(NC(=O)CCc2nc3cccnc3n2Cc2ccc(OC)cc2)cc1 | inconclusive: 44.7% |
| COc1ccc(N(C(=O)Cc2cccs2)C(C(=O)NC2CCCCC2)c2cccn2C)cc1 (stereo unspecified) | inconclusive: 39.2% |
| Cc1ccc(/C=N/NC(=O)c2nn(C)cc2Cl)cc1 | inconclusive: 32.6% |
| Cc1cccc(NC(=O)c2nc[nH]c2C(=O)N[C@@H](Cc2ccccc2)C(=O)OCc2ccccc2)c1 | inactive: 6.53% |
| CC(CCc1ccc(O)cc1)NC(c1ccccc1)c1ccc(Cl)cc1 (stereo unspecified) | inconclusive: 38.6% |
| CC(C)CC(=O)NNC(=O)c1ccc(Cl)cc1 | inactive: 0.117% |
| CC(=O)c1cccc(NC(=O)N2CCC(NC(=O)C34CC5CC(CC(C5)C3)C4)CC2)c1 | inconclusive: 72.9% |
| Cc1nnc2ccc(-c3cccc(NC(=O)c4ccc(Br)o4)c3)nn12 | inactive: -2.21% |
| O=C(NCC1CCN(Cc2ccccc2Cl)CC1)Nc1cccc(Cl)c1 | inconclusive: 33.1% |
| Cn1c(CN2CCCCC2)nc2cc(NC(=O)c3ccc(F)cc3)ccc21 | inconclusive: 50.8% |
| CCOC(=O)c1cnc2ccccc2c1Nc1ccc(C(=O)O)cc1 | inactive: -0.783% |
| Cc1ccc(SCCNC(=O)c2ccc([N+](=O)[O-])c(C)c2)cc1 | inconclusive: 77.3% |
| CCOc1ccc(C2c3[nH]c4ccccc4c3CCN2CCCn2cccn2)cc1 (stereo unspecified) | inconclusive: 30.3% |
| N#C/C(=C1/CCCCCN1)c1nc2ccccc2s1 | inconclusive: 46.3% |
| CCCc1ccc(OCCNC(=O)C2CCCCC2)cc1 | inconclusive: 76% |
| COc1ccccc1NC(=O)N1CCC(C(=O)c2ccc(F)cc2)CC1 | inconclusive: 56% |
| CSc1nnc(C(C)(C)C)c(=O)n1/N=C/c1ccc(Cl)cc1 | inconclusive: 33% |
| O=C(OCc1ccc(F)cc1)c1ccc2ccccc2n1 | inconclusive: 35.8% |
| O=S(=O)(c1ccc2nc(COc3ccc(Cl)cc3Cl)[nH]c2c1)N1CCOCC1 | inconclusive: 45.4% |
| Cc1ccc2c(CC(=O)N3CCN(c4ccccc4)CC3)coc2c1 | inconclusive: 68.7% |

3 entries drawn at random from those above:

| SMILES | activation |
| --- | --- |
| Cc1cccc(NC(=O)c2nc[nH]c2C(=O)N[C@@H](Cc2ccccc2)C(=O)OCc2ccccc2)c1 | inactive: 6.53% |
| COc1ccc2cc3cc(C(=O)NC4CC4)sc3nc2c1 | inconclusive: 72.9% |
| CCCc1ccc(OCCNC(=O)C2CCCCC2)cc1 | inconclusive: 76% |

The listing continues.

| SMILES | activation |
| --- | --- |
| N#Cc1cn(-c2ccccc2)nc1-c1ccc2c(c1)OCCO2 | inconclusive: 38.1% |
| NC(=O)C1CCN(C(=O)CCSCc2ccc(Cl)c(Cl)c2)CC1 | active: 88% |
| COc1cccc(CN(C)CC(=O)Nc2cc(S(=O)(=O)N3CCCC3)ccc2Cl)c1OC | inconclusive: 37.7% |
| CN1/C(=C\C(=O)COC(=O)c2ccc(O)c(O)c2)C(C)(C)c2ccccc21 | inconclusive: 66% |
| COc1ccccc1CNC(=O)c1oc2ccccc2c1C | inconclusive: 37% |
| COc1ccc2cc3cc(C(=O)NCCc4ccc(OC)c(OC)c4)oc3nc2c1 | inactive: -5.44% |
| O=[N+]([O-])c1cc([N+](=O)[O-])c(Oc2cc(F)cc(F)c2F)cc1NN1CCCCC1 | inconclusive: 76.7% |
| NS(=O)(=O)c1ccc(CCNCc2ccccc2OCc2ccc(Cl)cc2)cc1 | inactive: -0.207% |
| Cc1ccc(-c2ccc(=O)n(CC(=O)NCc3ccc(F)cc3)n2)cc1 | inconclusive: 42.8% |
| CC(=O)c1cnn(-c2c(Cl)cc(Cl)cc2Cl)c1C | inconclusive: 33.1% |
| C=CCc1c(C)nc(SC)nc1Nc1ccc(C)cc1 | inconclusive: 53.2% |
| COc1ccc2[nH]c(=O)c(CN(CCCN3CCOCC3)C(=O)NCc3ccccc3)cc2c1 | inactive: -3.33% |
| O=C(CCCc1ccccc1)Nc1ccnn1C1CCN(Cc2ccc(Cl)cc2)CC1 | inactive: 8.64% |
| FC(F)(F)c1nc2ccccc2n2c(-c3ccc(Cl)cc3)nnc12 | inactive: 0.121% |
| Cc1ccc(OCC(=O)Nc2ccccc2N2CCCC2)c(C)c1 | inconclusive: 61.9% |
| COC(=O)c1cccc(NC(=S)Nc2ccccc2Cl)c1 | inconclusive: 36.3% |
| O=C1C=C(/C=C/c2ccccc2)C[C@@H](c2ccc3c(c2)OCO3)C1 | inconclusive: 41.6% |
| O=C(/C(=N\O)n1cncn1)c1ccc(Cl)cc1Cl | inconclusive: 37.6% |
| CC(=O)N1CC(C)Sc2ccc(S(=O)(=O)NC3CCCCC3C)cc21 (stereo unspecified) | inconclusive: 75.2% |
| COc1ccc(/C=C/C(=O)NCCn2c(C)cc3ccccc32)cc1OC | inconclusive: 64.3% |
| O=c1[nH]c(CN2CCN(C/C=C/c3ccccc3)CC2)nc2cc(Cl)ccc12 | inactive: 0.24% |
| O=C(Nc1cccc(F)c1)NC1CCCCCCC1 | inconclusive: 55.8% |
| Cc1occc1C(=O)N/N=C/C=C/c1ccccc1 | inconclusive: 34.8% |

Some of the entries so far, field by field.
Cc1ccc(SCCNC(=O)c2ccc([N+](=O)[O-])c(C)c2)cc1
  activation: inconclusive: 77.3%
COc1ccccc1CNC(=O)c1oc2ccccc2c1C
  activation: inconclusive: 37%

Carrying on:

| SMILES | activation |
| --- | --- |
| Cc1cc(C)n(CCNS(=O)(=O)c2ccc(C)c(C)c2)n1 | inactive: -0.285% |
| O=C(COc1cccc(-n2cnnn2)c1)NCCC1=CCCCC1 | inconclusive: 40.6% |
| CC(C)c1c(C(=O)N/N=C/c2ccsc2)nnn1-c1nonc1N | inconclusive: 37.7% |
| CCC(C)OC(=O)C1=C(C)OC23OC(N)=C(C#N)C12C(=O)c1ccccc13 (stereo unspecified) | inconclusive: 31.9% |
| CCCn1nnc(NC(=O)c2cc(Br)cc(Br)c2OC)n1 | inconclusive: 32.5% |
| COc1cccc(NC(=O)CN(c2ccc(C)cc2)S(=O)(=O)c2c(C)nn(C)c2C)c1 | inactive: -0.31% |
| CCn1c(C(=O)NC2CCC(C)CC2)cc2sccc21 (stereo unspecified) | inconclusive: 37.2% |
| CCC(=O)N(C)CCc1cc2c(c(OC)c1/C=N/Nc1ccc(C(=O)O)cc1)OCO2 | inactive: 1.18% |
| O=C(NCc1ccccc1)N1CCC(Cc2ccccc2)CC1 | inconclusive: 70.8% |
| O=C(Nc1ccncc1)c1cccc(S(=O)(=O)N2CCc3ccccc32)c1 | inconclusive: 66.8% |
| Cc1ccc([N+](=O)[O-])c(OCCN2CCc3ccccc3C2)c1 | inactive: 8.45% |
| COc1cccc(C(=O)Nc2cc(Cl)c(O)c(Cl)c2)c1 | inconclusive: 36.5% |
| COc1ccc(/C=c2\s/c(=C/C(=O)c3ccc(C)cc3)[nH]c2=O)c(OC)c1 | inactive: 27.8% |
| N#C/C(=C\c1ccc(F)c(Cl)c1)S(=O)(=O)c1ccccn1 | inactive: -1.78% |
| Oc1ccc(Nc2nc(-c3ccccc3)nc3ccccc23)cc1 | inconclusive: 33.7% |
| O=c1c([N+](=O)[O-])c(N2CCOCC2)c2ccccc2n1Cc1ccccc1 | inactive: -0.768% |
| COc1ccc(N2CCN(C(=O)Nc3cccc(C(F)(F)F)c3)CC2)cc1 | inconclusive: 66.1% |
| O=C(CNC1CCCCC1)NCC1(c2ccccc2)CCCC1 | inconclusive: 72.5% |
| COc1ccc(C(=O)NC(C)C2CC3CCC2C3)c(OC)c1 (stereo unspecified) | inconclusive: 45.4% |
| CCc1ccc(NC(=S)N2CCCCCCC2)cc1 | inconclusive: 32.3% |
| COc1ccc(OCC(=O)NC2CCCN(Cc3ccc(Cl)cc3)C2)cc1 (stereo unspecified) | inconclusive: 54.6% |
| CC(C)CNc1cc(N2CCCC2)ccc1[N+](=O)[O-] | inconclusive: 39.2% |
| O=C(Nc1ccc(C(F)(F)F)cc1)N1CCN(C(=O)c2ccco2)CC1 | inconclusive: 36.3% |

| SMILES | activation |
| --- | --- |
| CCN(CC)C(=O)NC(c1ccc(C)c(F)c1)C(Cl)(Cl)Cl (stereo unspecified) | inconclusive: 52.7% |
| O=C(CSc1ccccc1)N1CCN(c2ccccc2)CC1 | inconclusive: 34.6% |
| O=C(C[C@H]1C(=O)N(CCc2ccccc2)C[C@@H]1Cc1ccccc1)Nc1ccccc1 | inconclusive: 59.2% |
| Cc1c(C(=O)Nc2cccc([N+](=O)[O-])c2)cnn1-c1ccccc1 | active: 103% |
| O=C(N/N=C\c1cccc(OC(=O)c2ccco2)c1)c1ccc2c(c1)OCO2 | inactive: 13.3% |
| Cc1cccc(C(=O)NNC(=O)C(=O)NC(C)(C)C)c1 | inactive: 0.158% |
| COc1ccc(-c2ccc(=O)n(CC(=O)NCc3ccco3)n2)cc1 | inactive: 2.58% |
| O=C(C1CCC(CNS(=O)(=O)c2cccs2)CC1)N1CCN(c2ccc(F)cc2)CC1 (stereo unspecified) | inactive: -0.142% |
| O=C(CSc1nc2ccccc2[nH]1)NC1CCCc2ccccc21 (stereo unspecified) | inconclusive: 48.9% |
| CC(C)N=C(NS(=O)(=O)c1ccccc1)C(Cl)(Cl)Cl | inactive: 24.5% |
| CC(C)(C)c1ccc(-c2noc(CCC(=O)N3CCOCC3)n2)cc1 | inconclusive: 55.9% |
| O=C(COc1cccc(C(F)(F)F)c1)N1CCN(c2ccc(O)cc2)CC1 | inconclusive: 49.3% |
| Cc1cc(C)n(-c2nc3ccccc3n3cnnc23)n1 | inactive: -1.7% |
| O=C(Nc1nc2c(s1)CCCC2)c1ccc(Br)s1 | inconclusive: 75.6% |
| CCOC(=O)c1ccc(Nc2ncnc3nc[nH]c23)cc1 | inconclusive: 60% |
| COC(=O)c1cn(NC(=O)c2ccccc2[N+](=O)[O-])c(=O)c2ccccc12 | inconclusive: 50.3% |
| CC1CCC(C(C)C)C(OC(=O)Cn2c(-c3ccc(F)cc3)[n+](C)c3ccccc32)C1 (stereo unspecified) | inactive: 7.87% |
| O=c1oc2ccccc2c(Nc2ccc(Cl)cc2)c1[N+](=O)[O-] | inactive: -5% |
| CCCOC(=O)c1ccc(NC(=O)CN(C)Cc2cccs2)cc1 | inconclusive: 41.5% |
| CCN1/C(=C\c2ccc3cc(C)ccc3[n+]2CC)Sc2cc(C)c(C)cc21 | inactive: 5.12% |
| Cc1ccc(F)cc1NC(=O)N1CCN(C2c3ccccc3-c3ccccc32)CC1 | inconclusive: 46.3% |
| COc1cccc(CN(C)CC(=O)Nc2sc3c(c2C#N)CCC3)c1OC | inconclusive: 52.3% |
